Data as given in PubChem BioAssay AID743121 (NCATS, 2013).
Screen: 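Partners whose loss is lethal together with topoisomerase I blockade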 (primary screen). Cells: MDA-MB-231 cells, a human breast cancer line. Reagents: single siRNA against human genes, 20 nM siRNA (0.8 pmol per well). Time to read-out: 120 h (drug added 48 h after transfection, read 72 h later). Treatment: camptothecin 20 nM (about EC30) for 72 h; vehicle 0.1% DMSO in parallel plates. Measured: 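CellTiter-Glo ATP signal, scaled to control siRNA as percent viability; sensitisation given as log2 of untreated divided by camptothecin-treated viability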. Reading the numbers: log2 vehicle/camptothecin viability: higher = stronger sensitisation to camptothecin; viability with camptothecin: higher = more viable cells. Call rule: 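Each gene scored by redundant siRNA activity (RSA) over its individual siRNA ratios; a gene is called active at p < 0.001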.
Here is one part, drawn at random, of about 26,000 reagents tested. In the full data, 167 (0.63%) are marked active. 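Calls are per gene from RSA p-values that are not deposited; an individual active-marked siRNA can sensitise only weakly.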 Reagents against one gene are numbered here. Further read-outs or replicates are left out here.

IL36G #1 showed log2 vehicle/camptothecin viability -0.356; viability with camptothecin (% of control) = 105; inactive.
IL36G #2 scored log2 vehicle/camptothecin viability 0.66; viability with camptothecin (% of control) = 45.3; inactive.
IL36G #3 showed log2 vehicle/camptothecin viability -0.23; viability with camptothecin (% of control) = 75.1; inactive.
IL36G #4 showed log2 vehicle/camptothecin viability -0.154; viability with camptothecin (% of control) = 80.1; inactive.
IFNLR1 #1 scored log2 vehicle/camptothecin viability 0.561; viability with camptothecin (% of control) = 53.1; inactive.
IFNLR1 #2 showed log2 vehicle/camptothecin viability 0.0336; viability with camptothecin (% of control) = 66.4; inactive.
For IFNLR1 #3 the deposit lists log2 vehicle/camptothecin viability 0.121; viability with camptothecin (% of control) = 73.9; inactive.
With knock-down of IFNLR1 #4, the record shows log2 vehicle/camptothecin viability 0.0556; viability with camptothecin (% of control) = 108; inactive.
EYA1 #1 scored log2 vehicle/camptothecin viability 0.533; viability with camptothecin (% of control) = 51.8; inactive.
Silencing of EYA1 #2 gave: log2 vehicle/camptothecin viability 0.3; viability with camptothecin (% of control) = 75.7; inactive.
After knock-down of EYA1 #3 the results were log2 vehicle/camptothecin viability -0.365; viability with camptothecin (% of control) = 98.4; inactive.
Knock-down of EYA1 #4 gave: log2 vehicle/camptothecin viability -0.217; viability with camptothecin (% of control) = 89.4; inactive.
Against TACR3 #1 the deposit lists log2 vehicle/camptothecin viability -0.125; viability with camptothecin (% of control) = 104; inactive.
TACR3 #2 gave log2 vehicle/camptothecin viability -0.514; viability with camptothecin (% of control) = 30.9; inactive.
Knock-down of TACR3 #3 came out at: log2 vehicle/camptothecin viability 0.0704; viability with camptothecin (% of control) = 97.5; inactive.
TACR3 #4 gave log2 vehicle/camptothecin viability 1.17; viability with camptothecin (% of control) = 15.2; inactive.
CHRNA6 #1 gave log2 vehicle/camptothecin viability -0.0827; viability with camptothecin (% of control) = 41.7; inactive.
With knock-down of CHRNA6 #2, the screen gave log2 vehicle/camptothecin viability -0.233; viability with camptothecin (% of control) = 93.1; inactive.
Silencing of CHRNA6 #3 came out at: log2 vehicle/camptothecin viability -0.0458; viability with camptothecin (% of control) = 108; inactive.
Knock-down of CHRNA6 #4 gave: log2 vehicle/camptothecin viability -0.00343; viability with camptothecin (% of control) = 88; inactive.
ABCC4 #1 showed log2 vehicle/camptothecin viability -0.435; viability with camptothecin (% of control) = 44.9; inactive.
Against ABCC4 #2 the deposit lists log2 vehicle/camptothecin viability 0.0101; viability with camptothecin (% of control) = 72.7; inactive.
Depletion of ABCC4 #3 gave: log2 vehicle/camptothecin viability -0.573; viability with camptothecin (% of control) = 101; inactive.
For ABCC4 #4 the deposit lists log2 vehicle/camptothecin viability -0.157; viability with camptothecin (% of control) = 89.7; inactive.

4 entries from above, reformatted:
Target gene,reagent no.,log2 vehicle/camptothecin viability,viability with camptothecin (% of control),Outcome
IFNLR1,1,0.561,53.1,inactive
IFNLR1,2,0.0336,66.4,inactive
IFNLR1,3,0.121,73.9,inactive
IFNLR1,4,0.0556,108,inactive

Additional records follow.
Against KDM4C #1, the values are log2 vehicle/camptothecin viability -0.0469; viability with camptothecin (% of control) = 107; inactive.
After knock-down of KDM4C #2, the record shows log2 vehicle/camptothecin viability 0.268; viability with camptothecin (% of control) = 22.9; inactive.
Knock-down of KDM4C #3 resulted in: log2 vehicle/camptothecin viability 0.707; viability with camptothecin (% of control) = 27.5; inactive.
For ADH5 #1, the entry reads log2 vehicle/camptothecin viability 0.123; viability with camptothecin (% of control) = 6.93; inactive.
With knock-down of ADH5 #2, the record shows log2 vehicle/camptothecin viability -0.00121; viability with camptothecin (% of control) = 110; inactive.
ADH5 #3 scored log2 vehicle/camptothecin viability -0.00574; viability with camptothecin (% of control) = 102; inactive.
Against DCLK1 #1, the values are log2 vehicle/camptothecin viability 0.578; viability with camptothecin (% of control) = 58.5; inactive.
Knock-down of DCLK1 #2 resulted in: log2 vehicle/camptothecin viability 0.0259; viability with camptothecin (% of control) = 84.9; inactive.
DCLK1 #3 gave log2 vehicle/camptothecin viability -0.0713; viability with camptothecin (% of control) = 85.8; inactive.
DCLK1 #4 showed log2 vehicle/camptothecin viability -0.0573; viability with camptothecin (% of control) = 99.1; inactive.
Against BAIAP2L1 #1, the entry reads log2 vehicle/camptothecin viability -0.299; viability with camptothecin (% of control) = 73; inactive.
For BAIAP2L1 #2, the entry reads log2 vehicle/camptothecin viability -0.495; viability with camptothecin (% of control) = 107; inactive.
For BAIAP2L1 #3 the deposit lists log2 vehicle/camptothecin viability 0.219; viability with camptothecin (% of control) = 27.6; inactive.
With knock-down of BAIAP2L1 #4, the screen gave log2 vehicle/camptothecin viability -0.104; viability with camptothecin (% of control) = 107; inactive.
Depletion of PTGER3 #1 resulted in: log2 vehicle/camptothecin viability -0.0181; viability with camptothecin (% of control) = 97.8; inactive.
After knock-down of PTGER3 #2, the screen gave log2 vehicle/camptothecin viability 0.755; viability with camptothecin (% of control) = 68.9; inactive.
Against PTGER3 #3, the values are log2 vehicle/camptothecin viability -0.408; viability with camptothecin (% of control) = 57.3; inactive.
With knock-down of PTGER3 #4, the record shows log2 vehicle/camptothecin viability 0.034; viability with camptothecin (% of control) = 102; inactive.
Knock-down of GRN #1 resulted in: log2 vehicle/camptothecin viability -0.0593; viability with camptothecin (% of control) = 102; inactive.
GRN #2 gave log2 vehicle/camptothecin viability 0.835; viability with camptothecin (% of control) = 12.3; inactive.
Depletion of GRN #3 resulted in: log2 vehicle/camptothecin viability 0.289; viability with camptothecin (% of control) = 77.6; inactive.
GRN #4 gave log2 vehicle/camptothecin viability 0.25; viability with camptothecin (% of control) = 1.51; inactive.
